# Reference: the supplement of paper PMC10849652
# By UniProt entry, the sequences of proteins in these tests, tags left out. Where a name states a change or a piece, a line headed by the entry shows the natural chain unless it says otherwise.
# UniProt Q9Y3I0: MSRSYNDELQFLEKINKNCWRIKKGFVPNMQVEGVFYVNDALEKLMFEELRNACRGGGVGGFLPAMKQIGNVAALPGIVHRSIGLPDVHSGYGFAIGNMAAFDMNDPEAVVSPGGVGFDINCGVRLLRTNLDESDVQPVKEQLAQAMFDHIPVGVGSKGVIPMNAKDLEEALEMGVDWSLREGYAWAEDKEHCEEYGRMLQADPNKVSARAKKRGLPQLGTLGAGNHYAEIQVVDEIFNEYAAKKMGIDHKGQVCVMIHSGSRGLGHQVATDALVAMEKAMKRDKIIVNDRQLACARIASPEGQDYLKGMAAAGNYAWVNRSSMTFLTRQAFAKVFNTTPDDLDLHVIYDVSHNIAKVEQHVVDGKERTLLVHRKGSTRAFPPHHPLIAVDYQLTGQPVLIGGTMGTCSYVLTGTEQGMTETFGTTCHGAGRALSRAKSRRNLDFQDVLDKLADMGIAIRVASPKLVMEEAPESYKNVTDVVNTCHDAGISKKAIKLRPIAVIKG
# UniProt O95197: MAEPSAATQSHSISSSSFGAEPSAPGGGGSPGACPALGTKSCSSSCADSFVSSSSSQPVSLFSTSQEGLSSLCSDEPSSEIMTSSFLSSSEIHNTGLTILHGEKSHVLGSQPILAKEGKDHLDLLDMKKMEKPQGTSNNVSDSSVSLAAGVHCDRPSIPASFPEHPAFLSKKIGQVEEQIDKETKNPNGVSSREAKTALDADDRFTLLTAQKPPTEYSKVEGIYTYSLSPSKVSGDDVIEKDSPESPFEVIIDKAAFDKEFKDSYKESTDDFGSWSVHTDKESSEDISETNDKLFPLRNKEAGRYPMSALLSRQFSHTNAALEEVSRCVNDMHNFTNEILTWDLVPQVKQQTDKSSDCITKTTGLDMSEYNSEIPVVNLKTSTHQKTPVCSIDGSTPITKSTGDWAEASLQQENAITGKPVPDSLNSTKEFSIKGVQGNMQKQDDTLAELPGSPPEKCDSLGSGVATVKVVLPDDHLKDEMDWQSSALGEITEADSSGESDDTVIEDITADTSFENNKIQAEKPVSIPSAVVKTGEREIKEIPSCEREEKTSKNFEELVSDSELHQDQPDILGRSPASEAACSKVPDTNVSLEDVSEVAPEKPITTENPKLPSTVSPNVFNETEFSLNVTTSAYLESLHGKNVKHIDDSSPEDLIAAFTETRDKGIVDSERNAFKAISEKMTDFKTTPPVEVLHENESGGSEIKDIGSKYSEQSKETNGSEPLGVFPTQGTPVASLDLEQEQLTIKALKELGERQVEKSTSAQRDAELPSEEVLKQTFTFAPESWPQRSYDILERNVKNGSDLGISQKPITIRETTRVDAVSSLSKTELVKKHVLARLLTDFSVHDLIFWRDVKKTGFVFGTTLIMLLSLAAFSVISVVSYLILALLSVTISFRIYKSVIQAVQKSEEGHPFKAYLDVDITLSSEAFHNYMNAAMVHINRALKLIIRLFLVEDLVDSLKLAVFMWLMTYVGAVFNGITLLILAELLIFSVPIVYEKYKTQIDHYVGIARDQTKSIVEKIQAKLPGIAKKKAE
# UniProt Q96IZ7: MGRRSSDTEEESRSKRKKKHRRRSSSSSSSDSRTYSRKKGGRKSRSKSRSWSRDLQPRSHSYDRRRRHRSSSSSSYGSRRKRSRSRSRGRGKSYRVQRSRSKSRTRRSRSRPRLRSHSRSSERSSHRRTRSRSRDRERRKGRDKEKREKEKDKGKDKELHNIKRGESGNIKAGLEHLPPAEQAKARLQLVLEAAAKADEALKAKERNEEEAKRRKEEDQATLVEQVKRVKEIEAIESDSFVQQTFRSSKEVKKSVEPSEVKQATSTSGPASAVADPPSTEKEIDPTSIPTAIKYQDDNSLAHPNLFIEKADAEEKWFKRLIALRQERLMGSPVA
# UniProt O00442: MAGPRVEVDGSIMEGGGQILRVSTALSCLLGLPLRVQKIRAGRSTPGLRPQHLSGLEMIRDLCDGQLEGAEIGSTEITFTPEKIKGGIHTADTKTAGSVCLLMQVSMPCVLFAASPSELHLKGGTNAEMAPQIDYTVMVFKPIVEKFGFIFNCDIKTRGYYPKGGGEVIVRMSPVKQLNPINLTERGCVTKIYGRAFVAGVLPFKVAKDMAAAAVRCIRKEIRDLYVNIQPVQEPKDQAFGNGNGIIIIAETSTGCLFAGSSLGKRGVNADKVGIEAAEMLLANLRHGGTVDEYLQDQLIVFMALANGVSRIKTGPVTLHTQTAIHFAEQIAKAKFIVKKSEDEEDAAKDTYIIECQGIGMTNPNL
# UniProt Q5JTH9: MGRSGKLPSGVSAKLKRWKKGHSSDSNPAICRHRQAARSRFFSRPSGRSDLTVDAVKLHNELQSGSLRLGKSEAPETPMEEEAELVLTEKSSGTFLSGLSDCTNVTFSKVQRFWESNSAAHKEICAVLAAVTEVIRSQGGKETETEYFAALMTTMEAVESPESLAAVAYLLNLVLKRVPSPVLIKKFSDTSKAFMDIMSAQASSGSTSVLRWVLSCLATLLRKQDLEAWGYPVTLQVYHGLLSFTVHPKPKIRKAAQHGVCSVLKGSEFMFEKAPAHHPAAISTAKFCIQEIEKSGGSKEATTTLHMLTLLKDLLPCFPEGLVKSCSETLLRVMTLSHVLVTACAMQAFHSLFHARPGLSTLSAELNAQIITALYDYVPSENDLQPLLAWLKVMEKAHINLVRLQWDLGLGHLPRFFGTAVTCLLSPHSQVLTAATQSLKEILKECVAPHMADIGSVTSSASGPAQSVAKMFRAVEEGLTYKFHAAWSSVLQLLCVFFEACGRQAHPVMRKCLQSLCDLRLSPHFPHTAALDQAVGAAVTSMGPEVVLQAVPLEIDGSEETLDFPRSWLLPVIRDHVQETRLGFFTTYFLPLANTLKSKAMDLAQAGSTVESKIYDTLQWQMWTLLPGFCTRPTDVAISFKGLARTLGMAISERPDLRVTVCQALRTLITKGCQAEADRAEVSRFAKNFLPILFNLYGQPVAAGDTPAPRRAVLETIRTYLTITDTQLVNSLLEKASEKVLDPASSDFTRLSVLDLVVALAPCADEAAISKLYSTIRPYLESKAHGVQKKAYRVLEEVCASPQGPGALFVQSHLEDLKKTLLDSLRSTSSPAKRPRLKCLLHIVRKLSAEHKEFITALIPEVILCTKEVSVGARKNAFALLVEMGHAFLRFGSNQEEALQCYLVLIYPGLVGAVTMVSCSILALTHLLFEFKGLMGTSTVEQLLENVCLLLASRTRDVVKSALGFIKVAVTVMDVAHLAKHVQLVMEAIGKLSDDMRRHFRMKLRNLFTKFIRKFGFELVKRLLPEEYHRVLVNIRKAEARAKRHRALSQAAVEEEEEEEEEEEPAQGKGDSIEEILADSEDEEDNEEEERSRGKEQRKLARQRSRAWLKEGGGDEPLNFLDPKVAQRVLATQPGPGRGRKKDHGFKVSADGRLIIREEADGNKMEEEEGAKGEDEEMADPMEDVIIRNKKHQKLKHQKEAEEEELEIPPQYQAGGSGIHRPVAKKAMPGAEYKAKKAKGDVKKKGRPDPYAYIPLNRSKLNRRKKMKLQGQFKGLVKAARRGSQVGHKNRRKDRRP
# UniProt P10301: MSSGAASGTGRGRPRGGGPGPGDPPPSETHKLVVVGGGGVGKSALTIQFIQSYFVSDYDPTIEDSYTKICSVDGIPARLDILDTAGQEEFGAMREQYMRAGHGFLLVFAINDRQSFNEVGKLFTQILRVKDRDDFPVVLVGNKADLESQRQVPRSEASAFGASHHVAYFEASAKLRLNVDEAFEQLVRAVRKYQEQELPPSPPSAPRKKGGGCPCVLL
# UniProt Q7L523, whole entry, looked up: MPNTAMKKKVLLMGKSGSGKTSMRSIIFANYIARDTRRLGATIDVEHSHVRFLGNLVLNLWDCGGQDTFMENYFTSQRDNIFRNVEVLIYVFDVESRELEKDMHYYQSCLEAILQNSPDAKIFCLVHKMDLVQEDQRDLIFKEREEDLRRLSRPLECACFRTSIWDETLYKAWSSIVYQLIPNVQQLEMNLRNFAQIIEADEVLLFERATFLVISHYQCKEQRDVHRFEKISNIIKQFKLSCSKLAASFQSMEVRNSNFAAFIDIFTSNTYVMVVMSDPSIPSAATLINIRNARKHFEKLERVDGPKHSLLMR
# UniProt Q96CM3: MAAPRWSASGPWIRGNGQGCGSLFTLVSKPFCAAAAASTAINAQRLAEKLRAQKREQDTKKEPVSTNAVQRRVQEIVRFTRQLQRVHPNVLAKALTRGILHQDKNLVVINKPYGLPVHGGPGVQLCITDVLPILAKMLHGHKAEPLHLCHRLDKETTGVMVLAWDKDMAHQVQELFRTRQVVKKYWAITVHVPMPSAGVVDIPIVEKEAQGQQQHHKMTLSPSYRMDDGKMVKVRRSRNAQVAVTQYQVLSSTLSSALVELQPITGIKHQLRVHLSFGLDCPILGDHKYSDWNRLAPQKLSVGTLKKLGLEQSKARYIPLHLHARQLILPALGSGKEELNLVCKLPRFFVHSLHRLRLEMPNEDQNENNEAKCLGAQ
# UniProt Q9H446: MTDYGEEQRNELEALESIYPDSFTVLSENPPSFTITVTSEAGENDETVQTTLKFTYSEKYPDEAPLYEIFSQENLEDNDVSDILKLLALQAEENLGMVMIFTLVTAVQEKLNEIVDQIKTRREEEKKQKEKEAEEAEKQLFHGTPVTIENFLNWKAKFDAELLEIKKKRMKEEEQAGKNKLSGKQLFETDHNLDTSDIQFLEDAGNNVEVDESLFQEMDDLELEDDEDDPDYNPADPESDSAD
# UniProt Q9Y230, whole entry, looked up: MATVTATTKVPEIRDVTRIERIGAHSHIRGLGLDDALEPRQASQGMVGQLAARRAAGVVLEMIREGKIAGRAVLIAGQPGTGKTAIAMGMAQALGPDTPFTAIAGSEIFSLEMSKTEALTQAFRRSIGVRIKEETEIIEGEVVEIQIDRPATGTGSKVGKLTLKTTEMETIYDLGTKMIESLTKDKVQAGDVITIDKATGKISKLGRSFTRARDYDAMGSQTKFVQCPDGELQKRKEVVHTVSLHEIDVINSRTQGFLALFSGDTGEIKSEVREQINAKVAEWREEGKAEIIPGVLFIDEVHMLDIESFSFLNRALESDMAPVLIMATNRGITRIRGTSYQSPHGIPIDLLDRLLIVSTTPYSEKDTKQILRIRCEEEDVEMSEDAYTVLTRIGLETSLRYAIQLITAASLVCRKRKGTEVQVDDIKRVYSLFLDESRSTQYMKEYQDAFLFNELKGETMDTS
# UniProt Q7L099: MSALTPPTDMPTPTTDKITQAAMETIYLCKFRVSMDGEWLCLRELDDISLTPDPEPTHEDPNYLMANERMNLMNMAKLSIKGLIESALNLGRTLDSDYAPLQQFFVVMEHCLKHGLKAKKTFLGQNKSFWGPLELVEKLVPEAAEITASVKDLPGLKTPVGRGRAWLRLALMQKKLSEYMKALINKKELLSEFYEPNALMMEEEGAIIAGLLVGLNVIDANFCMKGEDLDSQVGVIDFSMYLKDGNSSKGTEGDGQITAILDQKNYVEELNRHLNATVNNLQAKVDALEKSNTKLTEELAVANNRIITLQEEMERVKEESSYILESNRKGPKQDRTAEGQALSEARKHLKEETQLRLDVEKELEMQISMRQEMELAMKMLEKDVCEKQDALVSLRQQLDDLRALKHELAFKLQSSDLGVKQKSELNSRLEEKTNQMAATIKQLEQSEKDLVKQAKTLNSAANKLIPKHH
# UniProt Q5VZM2, whole entry, looked up: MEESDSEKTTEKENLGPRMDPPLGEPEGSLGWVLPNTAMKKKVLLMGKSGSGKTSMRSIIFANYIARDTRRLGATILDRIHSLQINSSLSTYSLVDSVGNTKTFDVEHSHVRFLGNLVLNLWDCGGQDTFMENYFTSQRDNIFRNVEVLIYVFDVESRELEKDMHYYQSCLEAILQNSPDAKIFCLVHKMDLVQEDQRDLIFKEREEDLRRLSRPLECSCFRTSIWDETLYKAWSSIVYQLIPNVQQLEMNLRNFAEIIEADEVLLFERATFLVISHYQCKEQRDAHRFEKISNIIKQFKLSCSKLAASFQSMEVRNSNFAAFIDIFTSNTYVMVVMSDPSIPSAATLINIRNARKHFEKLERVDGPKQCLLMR
# UniProt Q6NW29: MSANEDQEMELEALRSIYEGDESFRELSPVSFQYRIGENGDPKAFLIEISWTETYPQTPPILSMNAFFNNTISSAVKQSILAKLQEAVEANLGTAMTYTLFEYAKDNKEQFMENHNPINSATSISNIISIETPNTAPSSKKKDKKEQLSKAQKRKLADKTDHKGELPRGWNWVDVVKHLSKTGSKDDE
# UniProt P05386, whole entry, looked up: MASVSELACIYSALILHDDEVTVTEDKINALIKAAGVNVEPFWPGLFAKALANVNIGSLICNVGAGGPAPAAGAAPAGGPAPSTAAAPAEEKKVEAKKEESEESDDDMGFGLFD
# UniProt Q9Y3A4: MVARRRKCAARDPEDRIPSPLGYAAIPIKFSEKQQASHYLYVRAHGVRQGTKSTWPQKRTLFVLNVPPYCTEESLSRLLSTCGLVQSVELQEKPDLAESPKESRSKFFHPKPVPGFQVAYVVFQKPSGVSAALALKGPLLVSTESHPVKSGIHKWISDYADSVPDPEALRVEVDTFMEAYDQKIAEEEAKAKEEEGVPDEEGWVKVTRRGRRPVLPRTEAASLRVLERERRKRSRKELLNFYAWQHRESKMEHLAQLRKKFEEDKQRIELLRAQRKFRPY
# The other results are listed elsewhere or left out.
# Experiments:
# Experiment in all cases: log2 fold change, soluble protein after heating vs DMSO (PISA); higher = thermal stabilisation; K562 lysate, 10 uM; active = over 0.2 and 3.5 SD of the protein, either way, in both replicates (recomputed)
# [1] = compound: NCC(=O)Nc1ccc(-n2nc(C(F)(F)F)cc2-c2ccc3c(ccc4ccccc43)c2)cc1
# In short: (§1)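 Pellets of K562 cells were dounce-homogenised in PBS pH 7.4 with 1 mM MgCl2, and the crude extract was held at 1 mg/mL protein for a 30 min treatment with 10 μM compound. Aliquots were heated for 3 min over 48°C-58°C and pooled before NP-40 was added to 0.5% at 4°C. The supernatant from 21,000xg for 90 min was quantified by TMTpro 16plex LC-MS/MS with channel sums equalised. Values are reported from duplicates as log-two fold change in thermal stability relative to solvent controls.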
# [2] = compound: O=C(CCCCCCC(=O)Nc1ccccc1)NO [vorinostat]
# In short: as §1
# [3] = compound: O=C(O)c1ccc2c(c1)nc(Nc1cccc(Cl)c1)c1ccncc12 [silmitasertib]
# In short: as §1
# [4] = compound: O=C1NC(=O)C(c2cnc3ccccn23)=C1c1cn2c3c(cc(F)cc13)CN(C(=O)N1CCCCC1)CC2
# In short: as §1
# [5] = compound: c1cn2cc(-c3ccc4cn[nH]c4c3)nc(Nc3ccc(N4CCOCC4)cc3)c2n1 [entospletinib]
# In short: as §1
Target,log2 fold change [1],log2 fold change [2],log2 fold change [3],log2 fold change [4],log2 fold change [5]
RPP30 isoform 2 (UniProt P78346),inactive: -0.007,inactive: 0.029,inactive: 0.018,inactive: 0.038,inactive: -0.001
RXRB isoform 3 (UniProt P28702),inactive: 0.067,active: -0.757,inactive: 0.168,inactive: 0.07,inactive: 0.006
RRAS2 (UniProt P62070),inactive: 0,inactive: 0.029,inactive: -0.005,inactive: -0.011,inactive: -0.008
RPS3 (UniProt P23396),inactive: -0.007,inactive: 0.005,inactive: 0.015,inactive: 0.007,inactive: 0.003
RPS4X (UniProt P62701),inactive: 0.008,inactive: 0.106,inactive: 0.028,inactive: 0.015,inactive: 0.016
RRP15 (UniProt Q9Y3B9),inactive: 0.002,inactive: 0.129,inactive: -0.006,inactive: 0.006,inactive: 0.071
RTCB (UniProt Q9Y3I0),inactive: 0.017,inactive: -0.134,inactive: 0.013,inactive: -0.049,inactive: 0.017
RPS19 (UniProt M0R2L9),inactive: -0.167,inactive: -0.015,inactive: 0.244,inactive: 0.33,inactive: -0.124
RRBP1 isoform 3 (UniProt Q9P2E9),inactive: -0.002,inactive: 0.118,inactive: -0.109,inactive: -0.11,inactive: 0.123
RSRC2 (UniProt Q7L4I2),inactive: 0.017,inactive: 0.098,inactive: 0.011,inactive: -0.072,inactive: 0.001
RTN3 (UniProt O95197),inactive: 0.036,inactive: 0.128,inactive: 0.011,inactive: 0.051,inactive: 0.013
RTRAF (UniProt Q9Y224),inactive: -0.008,inactive: -0.059,inactive: -0.003,inactive: -0.039,inactive: 0.029
RPS15A (UniProt P62244),inactive: -0.027,inactive: 0.015,inactive: 0.034,inactive: -0.028,inactive: -0.014
RRP9 (UniProt O43818),inactive: 0.055,inactive: 0.144,inactive: 0.065,inactive: 0.002,inactive: 0.12
RSRC1 (UniProt Q96IZ7),inactive: 0.034,inactive: 0.147,inactive: 0.014,inactive: 0.006,inactive: 0.02
RTCA (UniProt O00442),inactive: 0.001,inactive: 0.072,inactive: -0.022,inactive: 0.022,inactive: -0.009
RPS23 (UniProt P62266),inactive: 0.023,inactive: 0.136,inactive: -0.004,inactive: 0.028,inactive: 0.05
RTN4 isoform 5 (UniProt Q9NQC3),inactive: 0.133,inactive: 0.113,inactive: 0.023,inactive: 0.038,inactive: -0.005
RPS6 (UniProt P62753),inactive: -0.021,inactive: 0.043,inactive: 0.026,inactive: 0.034,inactive: 0.001
S100A12 (UniProt P80511),inactive: -0.295,,,,
RPN2 (UniProt P04844),inactive: -0.007,inactive: 0.118,inactive: 0.008,inactive: -0.04,inactive: -0.009
RRP12 (UniProt Q5JTH9),inactive: -0.028,inactive: 0.016,inactive: -0.007,inactive: 0.023,inactive: 0.017
RREB1 isoform 2 (UniProt Q92766),inactive: 0.172,inactive: -0.206,inactive: 0.044,inactive: 0.031,inactive: -0.363
RRAS (UniProt P10301),inactive: -0.044,inactive: 0.062,inactive: 0.004,inactive: -0.036,inactive: -0.013
RRAGA (UniProt Q7L523),inactive: -0.007,inactive: 0.099,inactive: 0.039,inactive: -0.015,inactive: 0.05
RPUSD4 (UniProt Q96CM3),inactive: -0.06,inactive: 0.046,inactive: -0.018,inactive: -0.022,
RWDD1 (UniProt Q9H446),inactive: -0.025,inactive: 0.107,inactive: -0.016,inactive: 0.043,inactive: -0.006

# Shown with bars between the fields: entries from further up.
Target | log2 fold change [1] | log2 fold change [2] | log2 fold change [3] | log2 fold change [4] | log2 fold change [5]
RTN4 isoform 5 (UniProt Q9NQC3) | inactive: 0.133 | inactive: 0.113 | inactive: 0.023 | inactive: 0.038 | inactive: -0.005
RPS6 (UniProt P62753) | inactive: -0.021 | inactive: 0.043 | inactive: 0.026 | inactive: 0.034 | inactive: 0.001
S100A12 (UniProt P80511) | inactive: -0.295 |  |  |  | 

# The results go on:

Target,log2 fold change [1],log2 fold change [2],log2 fold change [3],log2 fold change [4],log2 fold change [5]
RRM2 isoform 2 (UniProt P31350),inactive: -0.008,inactive: 0.066,inactive: -0.009,inactive: -0.025,inactive: 0.047
RRM2B isoform 6 (UniProt Q7LG56),inactive: 0.011,inactive: 0.089,inactive: 0.009,inactive: 0.012,inactive: 0.006
RTL8C (UniProt A6ZKI3),inactive: 0,inactive: 0.032,inactive: -0.06,inactive: 0.026,inactive: 0.025
RUVBL2 (UniProt Q9Y230),inactive: 0.006,inactive: 0.119,inactive: 0.004,inactive: 0.012,inactive: 0.015
RUBCN (UniProt Q92622),inactive: 0.018,inactive: -0.001,inactive: 0.009,inactive: 0.029,inactive: 0.036
RPS26P11 (UniProt Q5JNZ5),inactive: -0.026,inactive: 0.114,inactive: 0.049,inactive: -0.113,inactive: -0.035
RPS20 isoform 2 (UniProt P60866),inactive: -0.019,inactive: 0.022,inactive: 0.021,inactive: -0.034,inactive: -0.005
RUSC2 (UniProt Q8N2Y8),inactive: -0.14,inactive: -0.122,inactive: 0.107,,
RSU1 (UniProt Q15404),inactive: 0.018,inactive: 0.15,inactive: 0,inactive: 0.034,inactive: 0.003
RPS28 (UniProt P62857),inactive: 0.01,inactive: 0.108,inactive: 0.018,inactive: -0.026,inactive: -0.051
S100A11 (UniProt P31949),inactive: -0.085,inactive: 0.106,inactive: -0.057,inactive: 0.046,inactive: -0.045
RPS6KA1 (UniProt Q15418),inactive: 0.014,inactive: -0.157,active: 0.553,inactive: 0.123,inactive: -0.038
RUFY3 isoform 3 (UniProt Q7L099),inactive: 0.01,inactive: 0.002,inactive: 0.016,inactive: -0.009,inactive: -0.009
RPS12 (UniProt P25398),inactive: -0.014,inactive: -0.053,inactive: -0.006,inactive: 0.017,inactive: -0.004
RSBN1L (UniProt Q6PCB5),inactive: -0.003,inactive: 0.069,inactive: 0.004,inactive: 0.015,inactive: -0.007
RPS27A (UniProt P62979),inactive: 0.054,inactive: -0.188,inactive: 0.009,inactive: 0.025,inactive: 0
RRAGB (UniProt Q5VZM2),inactive: 0.024,inactive: 0.104,inactive: -0.005,inactive: -0.009,inactive: 0.059
RPL7 (UniProt P18124),inactive: 0.027,inactive: 0.127,inactive: -0.026,inactive: 0.035,inactive: 0.018
RRP1B (UniProt Q14684),inactive: -0.022,inactive: -0.012,inactive: 0.067,inactive: -0.043,inactive: -0.003
RWDD4 (UniProt Q6NW29),inactive: -0.059,inactive: 0.076,inactive: 0.032,inactive: 0.057,inactive: 0.014
S100A2 (UniProt P29034),inactive: 0.362,inactive: 0.167,inactive: -0.017,inactive: 0.124,inactive: -0.06
RPLP1 (UniProt P05386),inactive: -0.037,inactive: 0.16,inactive: -0.054,inactive: 0.005,inactive: 0.029
RPL9 (UniProt P32969),inactive: -0.027,inactive: -0.054,inactive: 0.006,inactive: 0.003,inactive: 0.013
RRP7A (UniProt Q9Y3A4),inactive: 0.067,inactive: -0.189,inactive: -0.059,inactive: -0.034,inactive: 0.008
RPP40 (UniProt O75818),inactive: -0.037,inactive: 0,inactive: -0.006,inactive: -0.013,inactive: -0.028
RRS1 (UniProt Q15050),inactive: 0.02,inactive: 0.054,inactive: 0.052,inactive: 0.009,inactive: -0.009
RRP36 (UniProt Q96EU6),inactive: -0.062,inactive: 0.081,inactive: 0.156,inactive: -0.004,inactive: 0.08
